This is an account of results in publication PMC9547917.

Results are given in words; binding and its absence hold for the method and conditions named. For part of these data: Binding seen in cells or lysates may run through a third protein. Some binding calls cover weakened binding; strength is not graded here. For part of these data: Sequences can lack the tags named with a protein.

In experiment [1] the target is FAK, endogenous in mouse liver (mouse (endogenous in liver)) (UniProt P34152). Kind of experiment: co-IP; liver tissue of WT mice after a 24-week HFHC; endogenous proteins; IgG as control.
Experiment [2] deals with HA-tagged FAK (focal adhesion kinase), full length (human) (UniProt Q05397). The experiment can be described thus: co-IP; L02 cells transfected with Flag-tagged DUSP22 and HA-tagged FAK (full length or truncated); IP lysis buffer, Protein A/G magnetic agarose beads, antibodies at 4 °C overnight; immunoblot with anti-Flag and anti-HA.
The next experiment deals with T1, FAK (1–400)-HA (human) (UniProt Q05397).
T1 sequence: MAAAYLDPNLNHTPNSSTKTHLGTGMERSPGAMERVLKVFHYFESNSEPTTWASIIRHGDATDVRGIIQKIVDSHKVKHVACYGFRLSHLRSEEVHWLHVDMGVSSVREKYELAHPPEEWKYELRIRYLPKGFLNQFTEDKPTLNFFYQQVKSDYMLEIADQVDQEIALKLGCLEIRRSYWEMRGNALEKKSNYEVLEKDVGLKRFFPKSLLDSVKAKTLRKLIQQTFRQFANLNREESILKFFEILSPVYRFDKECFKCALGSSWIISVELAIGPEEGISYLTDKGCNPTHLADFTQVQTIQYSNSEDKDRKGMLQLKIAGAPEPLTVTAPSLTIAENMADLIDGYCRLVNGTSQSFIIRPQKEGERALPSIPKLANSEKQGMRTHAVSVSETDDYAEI
The description is as above.

The target of the next experiment is T2, FAK (401–693)-HA (human) (UniProt Q05397).
T2 sequence: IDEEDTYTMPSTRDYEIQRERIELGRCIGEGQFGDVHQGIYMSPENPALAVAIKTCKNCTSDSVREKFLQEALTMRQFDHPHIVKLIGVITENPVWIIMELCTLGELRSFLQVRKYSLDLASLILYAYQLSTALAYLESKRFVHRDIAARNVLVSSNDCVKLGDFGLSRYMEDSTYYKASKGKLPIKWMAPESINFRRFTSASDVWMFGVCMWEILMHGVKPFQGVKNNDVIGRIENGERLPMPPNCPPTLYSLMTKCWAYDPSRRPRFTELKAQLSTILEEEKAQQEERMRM
Described as above.

The target in another experiment is GST-FAK (UniProt Q05397). Kind of experiment: pull-down; GST-DUSP22 or GST-FAK from E. coli extracts on GST beads (4 °C, 1 h), then incubated 4 h with Flag-tagged FAK or Flag-tagged DUSP22 prepared by IP; eluate blotted with anti-Flag; GST alone as control; both purified.

B1: DUSP22, endogenous in mouse liver (protein, UniProt Q99N11 1-184)
chain: MGSGMSQILPGLYIGNFKDARDAEQLSRNKVTHILSVHDTARPMLEGVKYLCIPAADTPSQNLTRHFKESIKFIHECRLQGESCLVHCLAGVSRSVTLVIAYIMTVTDFGWEDALHTVRAGRSCANPNLGFQRQLQEFEKHEVHQYRQWLREEYGENPLRDAEEAKNILAAPGILKYWAFLRRL
Regarding B1, in experiment [1], the binding result is listed as “binds”.

B2: DUSP22 (1–144)-Flag (domain or fragment, UniProt Q9NRW4 1-144)
chain: MGNGMNKILPGLYIGNFKDARDAEQLSKNKVTHILSVHDSARPMLEGVKYLCIPAADSPSQNLTRHFKESIKFIHECRLRGESCLVHCLAGVSRSVTLVIAYIMTVTDFGWEDALHTVRAGRSCANPNVGFQRQLQEFEKHEVH
Take B2: in experiment [2], the binding entry was “binds”.

B3: Flag-tagged DUSP22 (dual specificity phosphatase 22), full length (protein, UniProt Q9NRW4 1-184)
chain: MGNGMNKILPGLYIGNFKDARDAEQLSKNKVTHILSVHDSARPMLEGVKYLCIPAADSPSQNLTRHFKESIKFIHECRLRGESCLVHCLAGVSRSVTLVIAYIMTVTDFGWEDALHTVRAGRSCANPNVGFQRQLQEFEKHEVHQYRQWLKEEYGESPLQDAEEAKNILAAPGILKFWAFLRRL
In the case of B3, the binding entry (in the experiment with FAK (1–400)-HA (human); with FAK (401–693)-HA (human); in experiment [2]; in the experiment with GST-FAK) was “binds” in each case.
